These are yes or no findings as the source states them, for the method shown. In cells and extracts the contact can be indirect. Some entries that bind do so weakly or less than the wild type.
Key:
[1] = target: Wilm's tumour-1 (WT1) (human (endogenous in PANC-1)) (UniProt P19544); experiment: co-IP; PANC-1 lysates immunoprecipitated with anti-WT1 or anti-USP5 antibody (non-specific IgG as control); WT1 and USP5 blotted in the precipitates; endogenous proteins
[2] = target: USP5 (human (endogenous in PANC-1)) (UniProt P45974); experiment: as above

By UniProt entry, the sequences of proteins in these tests, tags left out.
UniProt P45974: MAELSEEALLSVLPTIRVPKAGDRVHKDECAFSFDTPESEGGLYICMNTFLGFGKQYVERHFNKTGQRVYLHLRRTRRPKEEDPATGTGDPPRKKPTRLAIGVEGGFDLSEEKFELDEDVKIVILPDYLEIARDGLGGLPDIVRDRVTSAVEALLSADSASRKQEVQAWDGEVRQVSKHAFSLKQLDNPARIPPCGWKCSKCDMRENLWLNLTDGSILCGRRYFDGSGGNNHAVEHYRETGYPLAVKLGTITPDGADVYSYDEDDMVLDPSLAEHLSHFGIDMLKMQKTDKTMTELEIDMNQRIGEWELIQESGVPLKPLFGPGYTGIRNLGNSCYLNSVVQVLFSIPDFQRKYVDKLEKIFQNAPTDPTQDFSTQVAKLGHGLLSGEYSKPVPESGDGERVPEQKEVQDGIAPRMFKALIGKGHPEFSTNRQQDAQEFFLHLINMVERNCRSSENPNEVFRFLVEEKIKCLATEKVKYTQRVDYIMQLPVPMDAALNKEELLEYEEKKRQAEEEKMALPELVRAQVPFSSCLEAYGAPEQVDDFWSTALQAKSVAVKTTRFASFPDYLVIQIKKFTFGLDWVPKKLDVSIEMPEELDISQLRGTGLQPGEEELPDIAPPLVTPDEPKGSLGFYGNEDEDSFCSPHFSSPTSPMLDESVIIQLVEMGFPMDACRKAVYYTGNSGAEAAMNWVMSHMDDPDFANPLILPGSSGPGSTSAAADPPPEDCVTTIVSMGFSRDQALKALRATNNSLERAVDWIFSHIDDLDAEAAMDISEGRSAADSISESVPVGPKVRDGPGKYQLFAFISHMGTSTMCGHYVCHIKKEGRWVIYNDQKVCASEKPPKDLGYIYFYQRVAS

binding [1]	binding [2]	Substance
binds	–	USP5 (from UniProt P45974 1-858) (enzyme)
–	binds	Wilm's tumour-1 (WT1) (from UniProt P19544 1-449)
